From article PMC11599123
These are yes or no findings as the source states them, for the method shown. Some binding calls cover weakened binding; strength is not graded here. Sequences can lack the tags named with a protein.

Chains of the proteins cited; added tags and fusions are not shown.
UniProt P84095: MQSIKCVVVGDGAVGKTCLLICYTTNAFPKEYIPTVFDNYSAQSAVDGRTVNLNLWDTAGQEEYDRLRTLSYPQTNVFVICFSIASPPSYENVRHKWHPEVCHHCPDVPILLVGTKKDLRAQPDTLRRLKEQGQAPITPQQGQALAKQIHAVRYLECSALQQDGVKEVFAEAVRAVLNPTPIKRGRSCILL
UniProt P61589: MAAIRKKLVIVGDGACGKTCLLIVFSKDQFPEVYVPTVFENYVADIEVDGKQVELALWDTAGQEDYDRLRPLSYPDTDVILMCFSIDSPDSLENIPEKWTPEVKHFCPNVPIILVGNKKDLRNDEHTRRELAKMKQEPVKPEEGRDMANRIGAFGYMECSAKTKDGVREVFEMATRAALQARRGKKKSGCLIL

Key:
Experiment in all cases: pull-down; direct binding: GST-Rho GTPases immobilised on glutathione agarose beads, 10 µg purified His6-RhoGDI, 45 min in 1x PBS, 0.5% Triton X-100, 5 mM MgCl2; immunoblot; both purified
GST-tagged RhoG = GST-tagged RhoG (UniProt P84095)
GST-tagged RhoA = GST-tagged RhoA (UniProt P61589)
GST-tagged Cdc42, Q8CFN2 = settings: remark: other sources report otherwise

B1: His6-tagged RhoGDI1 (protein, UniProt Q5XI73 1-204)
chain: MAEQEPTAEQLAQIAAENEEDEHSVNYKPPAQKSIQEIQELDKDDESLRKYKEALLGRVAVSADPNVPNVIVTRLTLVCSTAPGPLELDLTGDLESFKKQSFVLKEGVEYRIKISFRVNREIVSGMKYIQHTYRKGVKIDKTDYMVGSYGPRAEEYEFLTPMEEAPKGMLARGSYNIKSRFTDDDKTDHLSWEWNLTIKKEWKD
GST-tagged RhoG
  binding: binds
GST-tagged RhoA
  binding: binds

B2: His6-tagged RhoGDI1, Q5XI73 1-204 (protein)
chain: B1 chain
GST-tagged Cdc42, Q8CFN2
  binding: binds
